# Some of the results follow.
# Sequences of proteins named here, by UniProt entry; tags and fusion partners are left off. A change or cut given only in a name is not applied to a line headed by its entry.
# UniProt O00461: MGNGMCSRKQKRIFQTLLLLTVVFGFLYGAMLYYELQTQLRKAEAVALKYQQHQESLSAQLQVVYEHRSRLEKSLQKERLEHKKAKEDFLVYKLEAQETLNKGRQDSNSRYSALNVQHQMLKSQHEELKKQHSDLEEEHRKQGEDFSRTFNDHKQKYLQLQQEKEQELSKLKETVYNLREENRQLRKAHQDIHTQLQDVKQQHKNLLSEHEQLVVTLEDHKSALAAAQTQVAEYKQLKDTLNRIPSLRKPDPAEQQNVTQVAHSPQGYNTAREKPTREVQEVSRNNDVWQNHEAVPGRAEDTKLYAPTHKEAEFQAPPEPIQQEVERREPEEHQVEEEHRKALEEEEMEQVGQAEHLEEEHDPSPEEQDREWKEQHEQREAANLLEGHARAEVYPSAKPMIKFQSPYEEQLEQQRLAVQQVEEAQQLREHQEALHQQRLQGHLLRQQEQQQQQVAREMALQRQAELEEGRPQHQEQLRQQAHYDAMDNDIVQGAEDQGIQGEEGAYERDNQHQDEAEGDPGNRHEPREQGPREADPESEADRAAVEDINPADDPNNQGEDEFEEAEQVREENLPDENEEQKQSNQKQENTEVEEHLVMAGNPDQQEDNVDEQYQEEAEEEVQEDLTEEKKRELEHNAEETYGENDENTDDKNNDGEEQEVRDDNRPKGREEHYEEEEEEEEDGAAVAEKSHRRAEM
# UniProt O14908: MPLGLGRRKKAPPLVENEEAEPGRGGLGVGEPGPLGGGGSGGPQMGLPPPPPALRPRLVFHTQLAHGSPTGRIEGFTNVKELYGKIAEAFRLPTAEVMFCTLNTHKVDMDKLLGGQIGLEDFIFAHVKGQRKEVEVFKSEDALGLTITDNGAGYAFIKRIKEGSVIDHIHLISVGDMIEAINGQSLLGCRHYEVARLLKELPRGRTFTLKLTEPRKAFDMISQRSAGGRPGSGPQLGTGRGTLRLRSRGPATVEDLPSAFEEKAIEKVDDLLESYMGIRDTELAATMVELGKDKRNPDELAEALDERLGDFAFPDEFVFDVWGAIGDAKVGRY
# UniProt Q9BRX5: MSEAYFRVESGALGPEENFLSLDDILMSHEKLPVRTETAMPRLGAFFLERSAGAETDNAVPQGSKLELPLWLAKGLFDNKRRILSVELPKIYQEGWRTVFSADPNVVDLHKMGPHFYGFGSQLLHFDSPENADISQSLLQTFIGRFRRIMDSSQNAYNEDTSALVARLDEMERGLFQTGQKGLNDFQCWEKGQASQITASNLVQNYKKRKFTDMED
# UniProt Q3T8J9: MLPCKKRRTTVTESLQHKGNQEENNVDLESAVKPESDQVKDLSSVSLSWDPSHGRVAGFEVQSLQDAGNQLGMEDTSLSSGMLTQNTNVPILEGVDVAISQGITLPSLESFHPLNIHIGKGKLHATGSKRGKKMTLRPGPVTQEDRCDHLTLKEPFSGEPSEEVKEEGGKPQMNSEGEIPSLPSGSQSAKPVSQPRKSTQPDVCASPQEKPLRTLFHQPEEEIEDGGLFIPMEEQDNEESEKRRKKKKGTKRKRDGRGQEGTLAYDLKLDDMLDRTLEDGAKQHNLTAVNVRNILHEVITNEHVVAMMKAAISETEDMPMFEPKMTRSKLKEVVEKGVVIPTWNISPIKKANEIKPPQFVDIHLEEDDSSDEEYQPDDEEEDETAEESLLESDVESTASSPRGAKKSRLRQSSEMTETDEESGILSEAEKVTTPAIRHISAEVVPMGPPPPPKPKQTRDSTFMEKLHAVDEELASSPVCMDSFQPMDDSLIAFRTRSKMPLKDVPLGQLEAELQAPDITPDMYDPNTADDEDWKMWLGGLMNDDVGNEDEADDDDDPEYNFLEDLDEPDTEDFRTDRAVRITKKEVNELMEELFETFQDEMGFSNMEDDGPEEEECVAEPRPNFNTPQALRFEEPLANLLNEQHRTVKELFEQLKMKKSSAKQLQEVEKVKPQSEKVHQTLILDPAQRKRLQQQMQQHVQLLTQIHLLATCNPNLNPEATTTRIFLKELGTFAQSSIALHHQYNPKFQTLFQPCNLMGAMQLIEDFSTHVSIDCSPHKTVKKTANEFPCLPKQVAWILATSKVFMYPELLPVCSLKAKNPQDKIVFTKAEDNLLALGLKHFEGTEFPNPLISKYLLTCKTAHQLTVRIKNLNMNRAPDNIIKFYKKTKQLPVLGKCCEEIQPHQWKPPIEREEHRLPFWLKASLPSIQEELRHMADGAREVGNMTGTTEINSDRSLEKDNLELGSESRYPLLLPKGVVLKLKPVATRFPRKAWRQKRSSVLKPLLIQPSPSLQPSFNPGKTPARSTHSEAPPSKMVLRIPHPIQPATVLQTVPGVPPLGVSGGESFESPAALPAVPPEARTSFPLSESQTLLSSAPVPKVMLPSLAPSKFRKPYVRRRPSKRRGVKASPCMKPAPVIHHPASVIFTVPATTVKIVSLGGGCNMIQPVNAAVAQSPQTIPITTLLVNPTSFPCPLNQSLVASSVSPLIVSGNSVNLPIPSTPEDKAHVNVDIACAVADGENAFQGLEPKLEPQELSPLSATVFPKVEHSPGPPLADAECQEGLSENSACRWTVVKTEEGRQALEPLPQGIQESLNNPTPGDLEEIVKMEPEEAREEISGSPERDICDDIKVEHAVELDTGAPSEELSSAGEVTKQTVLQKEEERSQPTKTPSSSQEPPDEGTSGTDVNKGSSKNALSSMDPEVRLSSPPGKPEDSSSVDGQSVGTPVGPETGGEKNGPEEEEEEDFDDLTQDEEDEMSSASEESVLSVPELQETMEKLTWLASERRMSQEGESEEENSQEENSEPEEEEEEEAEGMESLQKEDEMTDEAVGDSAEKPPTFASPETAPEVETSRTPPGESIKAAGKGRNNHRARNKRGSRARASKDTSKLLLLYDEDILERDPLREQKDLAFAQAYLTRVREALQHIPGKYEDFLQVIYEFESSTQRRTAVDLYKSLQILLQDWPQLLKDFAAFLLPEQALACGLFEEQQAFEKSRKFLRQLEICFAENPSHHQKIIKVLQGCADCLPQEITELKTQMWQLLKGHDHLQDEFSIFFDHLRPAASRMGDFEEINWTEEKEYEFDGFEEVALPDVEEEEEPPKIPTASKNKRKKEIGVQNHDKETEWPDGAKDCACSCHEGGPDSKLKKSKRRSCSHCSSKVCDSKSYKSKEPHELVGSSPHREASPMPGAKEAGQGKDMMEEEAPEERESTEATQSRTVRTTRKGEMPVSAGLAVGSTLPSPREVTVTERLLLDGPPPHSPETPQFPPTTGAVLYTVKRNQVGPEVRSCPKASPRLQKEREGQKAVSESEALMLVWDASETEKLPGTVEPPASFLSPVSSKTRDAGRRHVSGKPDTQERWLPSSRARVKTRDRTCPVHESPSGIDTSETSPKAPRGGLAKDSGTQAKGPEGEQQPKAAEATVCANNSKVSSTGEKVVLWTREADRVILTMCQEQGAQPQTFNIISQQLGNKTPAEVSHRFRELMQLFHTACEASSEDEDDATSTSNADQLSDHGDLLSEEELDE
# UniProt Q13227: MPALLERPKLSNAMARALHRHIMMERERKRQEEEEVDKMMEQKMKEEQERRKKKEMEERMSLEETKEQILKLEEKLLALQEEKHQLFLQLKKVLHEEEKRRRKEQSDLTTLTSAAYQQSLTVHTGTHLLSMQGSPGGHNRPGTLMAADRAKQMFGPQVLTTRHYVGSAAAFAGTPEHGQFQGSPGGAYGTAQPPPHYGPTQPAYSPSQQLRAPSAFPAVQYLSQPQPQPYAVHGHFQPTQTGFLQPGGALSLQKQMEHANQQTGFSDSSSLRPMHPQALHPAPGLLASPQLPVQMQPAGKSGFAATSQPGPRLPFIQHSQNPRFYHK
# UniProt P13224: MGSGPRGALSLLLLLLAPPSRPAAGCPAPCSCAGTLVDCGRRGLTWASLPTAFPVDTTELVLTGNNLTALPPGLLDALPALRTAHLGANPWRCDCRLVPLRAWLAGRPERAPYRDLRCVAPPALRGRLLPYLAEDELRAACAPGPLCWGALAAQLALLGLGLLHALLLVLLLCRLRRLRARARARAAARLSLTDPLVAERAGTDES
# UniProt P29992, whole entry, looked up: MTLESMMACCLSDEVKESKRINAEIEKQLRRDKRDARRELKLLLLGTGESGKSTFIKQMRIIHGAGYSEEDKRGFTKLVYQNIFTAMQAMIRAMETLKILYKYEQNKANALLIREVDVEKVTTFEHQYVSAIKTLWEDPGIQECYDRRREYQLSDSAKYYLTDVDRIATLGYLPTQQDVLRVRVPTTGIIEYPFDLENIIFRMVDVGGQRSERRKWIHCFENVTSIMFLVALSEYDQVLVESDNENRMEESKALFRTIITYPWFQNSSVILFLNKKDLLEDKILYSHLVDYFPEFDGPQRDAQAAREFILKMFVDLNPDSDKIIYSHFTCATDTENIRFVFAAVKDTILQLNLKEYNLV
# UniProt P50148, whole entry, looked up: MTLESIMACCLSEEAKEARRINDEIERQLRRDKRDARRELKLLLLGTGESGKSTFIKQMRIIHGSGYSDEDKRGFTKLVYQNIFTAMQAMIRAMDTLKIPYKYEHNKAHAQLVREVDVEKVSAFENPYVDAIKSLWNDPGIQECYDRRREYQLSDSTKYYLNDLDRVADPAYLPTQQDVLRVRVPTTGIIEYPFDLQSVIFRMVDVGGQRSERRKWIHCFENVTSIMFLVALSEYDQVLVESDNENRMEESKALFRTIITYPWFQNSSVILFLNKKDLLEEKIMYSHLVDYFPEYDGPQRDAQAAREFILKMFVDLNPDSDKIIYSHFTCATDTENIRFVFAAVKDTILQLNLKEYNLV
# UniProt P38435: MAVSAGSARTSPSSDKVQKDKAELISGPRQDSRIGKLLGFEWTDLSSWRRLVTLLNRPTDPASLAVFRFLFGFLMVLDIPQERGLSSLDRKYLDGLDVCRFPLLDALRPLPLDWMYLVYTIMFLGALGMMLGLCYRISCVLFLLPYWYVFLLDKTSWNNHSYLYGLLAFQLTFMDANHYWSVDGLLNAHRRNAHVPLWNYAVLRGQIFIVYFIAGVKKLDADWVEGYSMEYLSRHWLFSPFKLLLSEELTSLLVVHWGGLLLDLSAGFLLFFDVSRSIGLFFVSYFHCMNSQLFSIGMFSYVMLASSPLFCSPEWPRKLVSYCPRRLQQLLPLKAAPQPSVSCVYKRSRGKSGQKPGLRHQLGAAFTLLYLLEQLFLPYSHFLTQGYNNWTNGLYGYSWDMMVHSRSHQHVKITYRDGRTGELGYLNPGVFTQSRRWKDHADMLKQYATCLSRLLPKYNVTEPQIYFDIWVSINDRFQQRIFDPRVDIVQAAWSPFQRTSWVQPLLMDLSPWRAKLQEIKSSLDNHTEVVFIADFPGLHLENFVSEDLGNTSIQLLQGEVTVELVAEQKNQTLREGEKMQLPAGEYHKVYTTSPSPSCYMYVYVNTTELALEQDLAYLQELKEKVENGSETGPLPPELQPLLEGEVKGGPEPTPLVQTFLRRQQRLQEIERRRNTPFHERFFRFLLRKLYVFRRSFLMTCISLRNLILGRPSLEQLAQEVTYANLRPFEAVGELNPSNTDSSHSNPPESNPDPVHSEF
# UniProt O60547: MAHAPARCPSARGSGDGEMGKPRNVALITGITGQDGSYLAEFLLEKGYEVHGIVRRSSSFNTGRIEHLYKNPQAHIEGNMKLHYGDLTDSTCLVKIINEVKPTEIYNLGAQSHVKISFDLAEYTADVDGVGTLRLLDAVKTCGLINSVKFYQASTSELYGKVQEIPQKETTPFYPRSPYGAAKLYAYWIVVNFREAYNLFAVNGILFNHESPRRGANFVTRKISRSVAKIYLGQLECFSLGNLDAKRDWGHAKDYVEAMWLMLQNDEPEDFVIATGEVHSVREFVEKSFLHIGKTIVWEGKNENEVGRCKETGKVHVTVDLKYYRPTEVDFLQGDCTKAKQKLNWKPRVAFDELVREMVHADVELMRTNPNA
# UniProt P46926: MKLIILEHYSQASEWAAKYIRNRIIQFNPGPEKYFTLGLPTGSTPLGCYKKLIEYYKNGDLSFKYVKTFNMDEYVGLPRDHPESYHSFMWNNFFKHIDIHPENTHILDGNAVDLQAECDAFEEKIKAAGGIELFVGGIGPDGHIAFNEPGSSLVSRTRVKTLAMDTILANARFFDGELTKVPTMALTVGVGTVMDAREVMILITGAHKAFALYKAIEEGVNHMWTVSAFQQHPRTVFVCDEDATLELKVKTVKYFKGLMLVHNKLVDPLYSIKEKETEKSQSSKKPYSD
# UniProt P00505: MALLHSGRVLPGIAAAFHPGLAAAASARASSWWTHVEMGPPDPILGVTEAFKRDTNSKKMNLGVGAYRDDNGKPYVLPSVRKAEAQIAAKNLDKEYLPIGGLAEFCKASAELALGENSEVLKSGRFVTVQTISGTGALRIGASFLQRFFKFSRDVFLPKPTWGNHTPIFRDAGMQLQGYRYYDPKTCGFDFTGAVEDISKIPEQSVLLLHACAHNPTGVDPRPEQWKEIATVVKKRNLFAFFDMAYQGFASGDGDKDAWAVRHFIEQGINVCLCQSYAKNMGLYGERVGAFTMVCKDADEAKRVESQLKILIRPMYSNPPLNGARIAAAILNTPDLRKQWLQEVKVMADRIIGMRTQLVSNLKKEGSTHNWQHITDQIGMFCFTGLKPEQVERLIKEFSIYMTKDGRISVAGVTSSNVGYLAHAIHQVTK
# Compound: Cc1sc2c(c1C)C(c1ccc(Cl)cc1)=N[C@@H](CC(=O)OC(C)(C)C)c1nnc(C)n1-2
# Assay: log2 fold change, soluble protein after heating vs DMSO (PISA); higher = thermal stabilisation; K562 lysate, 10 uM; active = over 0.2 and 3.5 SD of the protein, either way, in both replicates (recomputed)
# Procedure, shortened: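 Thermal stability, expressed as log-two fold change relative to solvent controls, is given from duplicates. Crude K562 extract in PBS pH 7.4 with 1 mM MgCl2, at 1 mg/mL protein, was treated with 10 μM compound for 30 min and heated in aliquots for 3 min across 48°C-58°C. After pooling, adjustment to 0.5% NP-40 at 4°C and centrifugation at 21,000xg for 90 min, supernatant protein was measured by TMTpro 16plex LC-MS/MS with channel sums equalised.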
row,Target,log2 fold change
1,GGA2 (UniProt Q9UJY4),inactive: 0.062
2,GPHN isoform 2 (UniProt Q9NQX3),inactive: -0.023
3,GINS4 (UniProt Q9BRT9),inactive: 0.037
4,GOLIM4 (UniProt O00461),inactive: -0.054
5,GIPC1 (UniProt O14908),inactive: 0.027
6,GPBP1 isoform 2 (UniProt Q86WP2),inactive: 0.046
7,GINS3 (UniProt Q9BRX5),inactive: 0.029
8,GON4L (UniProt Q3T8J9),inactive: 0.003
9,GNE isoform 2 (UniProt Q9Y223),inactive: 0.007
10,GPS2 (UniProt Q13227),inactive: 0.068
11,GPR89A (UniProt B7ZAQ6),inactive: -0.027
12,GOLGA3 (UniProt Q08378),inactive: -0.026
13,GP1BB isoform 2 (UniProt P13224),inactive: -0.052
14,GMPS (UniProt P49915),inactive: 0.019
15,GNA11 (UniProt P29992),inactive: 0.013
16,GNAQ (UniProt P50148),inactive: 0.021
17,GGCX (UniProt P38435),inactive: 0
18,GOSR2 isoform 2 (UniProt O14653),inactive: -0.002
19,GMDS (UniProt O60547),inactive: 0.033
20,GNPTG (UniProt Q9UJJ9),inactive: 0.017
21,GNPDA1 (UniProt P46926),inactive: 0.006
22,GOT2 (UniProt P00505),inactive: 0.023
23,GOLT1B (UniProt Q9Y3E0),inactive: -0.039

# Look-ups from the results shown.
# In log2 fold change, GIPC1 (UniProt O14908) is listed with inactive: 0.027
# In log2 fold change, GPHN isoform 2 (UniProt Q9NQX3) is listed with inactive: -0.023

# From the supplement of paper PMC10849652
